Measured values from article PMC4538566 (Journal of Medicinal Chemistry, 2015).

Assay: In situ rat perfusion
Type: in vivo
Settings: 100 μM, six independent experiments

SMILES: CC(C)NCC(O)COc1ccc(CC(N)=O)cc1 (stereo not shown) [atenolol]
- Ka1 absorption rate coefficient: 0.22 h^–1
